Assay results taken from publication PMC5095016.
No constants are given. Whether binding was seen depends on the method and setting. In cells and extracts the contact can be indirect. Some entries that bind do so weakly or less than the wild type.

Amino acid sequences for entries named in this document (tags omitted).
UniProt P51532: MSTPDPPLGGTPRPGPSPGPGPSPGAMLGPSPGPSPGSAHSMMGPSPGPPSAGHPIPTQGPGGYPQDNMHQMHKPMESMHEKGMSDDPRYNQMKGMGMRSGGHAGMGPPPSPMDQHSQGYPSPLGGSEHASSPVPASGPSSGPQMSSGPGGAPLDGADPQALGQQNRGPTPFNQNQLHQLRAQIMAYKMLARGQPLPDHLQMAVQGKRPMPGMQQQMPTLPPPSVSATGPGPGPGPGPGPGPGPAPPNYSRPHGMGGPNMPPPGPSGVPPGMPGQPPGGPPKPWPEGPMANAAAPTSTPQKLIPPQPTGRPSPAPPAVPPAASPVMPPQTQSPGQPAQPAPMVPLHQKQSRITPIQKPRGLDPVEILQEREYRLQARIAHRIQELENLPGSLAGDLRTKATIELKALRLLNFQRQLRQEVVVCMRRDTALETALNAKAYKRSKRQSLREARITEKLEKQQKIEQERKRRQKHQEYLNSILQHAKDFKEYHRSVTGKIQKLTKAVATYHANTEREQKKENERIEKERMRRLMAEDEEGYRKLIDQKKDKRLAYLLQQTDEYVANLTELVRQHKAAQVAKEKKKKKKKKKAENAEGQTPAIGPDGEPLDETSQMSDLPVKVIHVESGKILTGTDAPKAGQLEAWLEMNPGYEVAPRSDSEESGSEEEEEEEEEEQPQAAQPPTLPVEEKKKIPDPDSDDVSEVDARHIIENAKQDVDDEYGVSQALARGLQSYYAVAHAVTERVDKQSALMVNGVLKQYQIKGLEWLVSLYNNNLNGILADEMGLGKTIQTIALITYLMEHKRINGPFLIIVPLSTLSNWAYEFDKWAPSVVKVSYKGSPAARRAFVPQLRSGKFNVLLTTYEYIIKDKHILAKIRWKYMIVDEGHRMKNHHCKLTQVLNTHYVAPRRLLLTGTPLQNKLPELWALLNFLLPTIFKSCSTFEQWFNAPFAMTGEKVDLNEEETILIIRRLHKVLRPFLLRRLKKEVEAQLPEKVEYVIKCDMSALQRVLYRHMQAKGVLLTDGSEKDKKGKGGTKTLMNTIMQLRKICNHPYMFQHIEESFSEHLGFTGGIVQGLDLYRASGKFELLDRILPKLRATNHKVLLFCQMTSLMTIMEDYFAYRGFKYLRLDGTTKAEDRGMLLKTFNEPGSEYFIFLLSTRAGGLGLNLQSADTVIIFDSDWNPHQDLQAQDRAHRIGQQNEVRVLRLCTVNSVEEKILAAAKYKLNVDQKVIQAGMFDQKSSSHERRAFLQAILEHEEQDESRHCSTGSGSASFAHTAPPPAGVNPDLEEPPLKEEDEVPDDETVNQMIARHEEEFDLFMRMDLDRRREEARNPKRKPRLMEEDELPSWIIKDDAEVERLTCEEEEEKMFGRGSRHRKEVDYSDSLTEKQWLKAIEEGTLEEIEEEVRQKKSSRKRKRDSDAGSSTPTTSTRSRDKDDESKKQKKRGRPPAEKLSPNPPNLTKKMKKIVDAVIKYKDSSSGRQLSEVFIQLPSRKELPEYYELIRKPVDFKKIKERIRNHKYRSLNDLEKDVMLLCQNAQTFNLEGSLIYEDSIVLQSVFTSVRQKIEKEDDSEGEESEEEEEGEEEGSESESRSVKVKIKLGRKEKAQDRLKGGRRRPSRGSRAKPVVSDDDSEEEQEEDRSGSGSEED
UniProt P40763: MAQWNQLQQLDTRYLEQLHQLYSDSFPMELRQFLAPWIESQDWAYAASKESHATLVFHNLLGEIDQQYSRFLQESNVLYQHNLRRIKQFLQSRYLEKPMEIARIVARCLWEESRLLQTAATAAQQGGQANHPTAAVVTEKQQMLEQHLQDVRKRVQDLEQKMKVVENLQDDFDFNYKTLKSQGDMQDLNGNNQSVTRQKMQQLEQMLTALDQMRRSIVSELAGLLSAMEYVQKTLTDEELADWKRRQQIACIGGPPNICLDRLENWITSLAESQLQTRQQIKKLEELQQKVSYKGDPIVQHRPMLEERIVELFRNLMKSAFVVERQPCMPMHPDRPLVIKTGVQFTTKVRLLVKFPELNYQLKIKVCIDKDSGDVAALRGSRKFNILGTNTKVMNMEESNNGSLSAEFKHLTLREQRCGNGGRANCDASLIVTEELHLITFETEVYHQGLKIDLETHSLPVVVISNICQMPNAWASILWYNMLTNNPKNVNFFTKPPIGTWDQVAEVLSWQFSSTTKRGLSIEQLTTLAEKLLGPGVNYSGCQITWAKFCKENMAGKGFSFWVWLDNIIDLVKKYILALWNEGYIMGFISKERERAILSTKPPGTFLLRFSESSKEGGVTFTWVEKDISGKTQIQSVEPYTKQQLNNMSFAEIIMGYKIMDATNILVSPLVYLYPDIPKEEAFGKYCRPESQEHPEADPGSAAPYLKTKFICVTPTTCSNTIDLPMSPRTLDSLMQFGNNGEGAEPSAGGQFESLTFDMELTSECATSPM

Target: BRG1 (also known as SMARCA4) (human (endogenous in LoVo)) (UniProt P51532)
Test: co-IP; immunoprecipitation with anti-BRG1 or anti-STAT3 antibodies in LoVo cells, followed by immunoblotting; endogenous proteins

binding: binds
Substance: STAT3 (from UniProt P40763 1-770)
